Target: Glutamate NMDA receptor
Format: cell membranes, Rattus norvegicus, Wistar, Brain, Membrane

IC50: 38 µM
SMILES: CNCCCC12CCC(c3ccccc31)c1ccccc12 [MAPROTILINE]

Source: ChEMBL document CHEMBL3616463, “Differential influence of 7 cations on 16 non-competitive NMDA receptor blockers” (Bioorg Med Chem Lett, 2015)
